T1: GST-tagged bZIP63 (Arabidopsis thaliana) (UniProt B9DGI8)
T1 sequence: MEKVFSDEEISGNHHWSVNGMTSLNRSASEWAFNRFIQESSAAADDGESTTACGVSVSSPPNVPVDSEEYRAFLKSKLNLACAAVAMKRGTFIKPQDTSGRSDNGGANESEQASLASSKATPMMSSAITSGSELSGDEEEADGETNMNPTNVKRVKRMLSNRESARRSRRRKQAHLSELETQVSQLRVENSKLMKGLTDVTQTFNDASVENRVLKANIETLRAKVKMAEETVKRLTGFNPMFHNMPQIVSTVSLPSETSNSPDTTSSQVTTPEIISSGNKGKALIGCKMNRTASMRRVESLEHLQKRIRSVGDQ

Amino acid sequences for entries named in this document (tags omitted).
UniProt Q42479: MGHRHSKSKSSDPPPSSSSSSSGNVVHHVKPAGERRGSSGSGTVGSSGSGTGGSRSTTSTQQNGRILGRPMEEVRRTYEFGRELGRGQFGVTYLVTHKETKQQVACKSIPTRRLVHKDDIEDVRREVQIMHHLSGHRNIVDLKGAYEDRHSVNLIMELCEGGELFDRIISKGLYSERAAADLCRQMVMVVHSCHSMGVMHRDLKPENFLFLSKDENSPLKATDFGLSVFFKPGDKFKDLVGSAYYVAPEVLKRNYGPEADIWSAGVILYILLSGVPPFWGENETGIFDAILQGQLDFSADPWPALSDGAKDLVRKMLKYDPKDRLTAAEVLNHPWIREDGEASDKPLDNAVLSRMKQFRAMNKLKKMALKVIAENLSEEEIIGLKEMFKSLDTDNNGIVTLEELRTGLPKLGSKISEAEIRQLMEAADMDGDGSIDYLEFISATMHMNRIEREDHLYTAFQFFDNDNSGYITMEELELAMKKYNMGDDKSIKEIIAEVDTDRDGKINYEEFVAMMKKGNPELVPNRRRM

B1: Casein kinase 1-like protein 2 (CKL2) (enzyme, UniProt Q9CAI5 1-465)
chain: MEPRVGNKFRLGRKIGGGSFGEIYLGTNIQTNEEVAIKLENVKTKHPQLLYESKLYKVLQGGTGVPNVKWYGVEGDYNVLVIDLLGPSLEDLFNFCSRKLSLKTVLMLADQMINRIEFVHQKSFLHRDIKPDNFLMGLGRRANQVYVIDFGLAKKYRDSNHQHIPYRENKNLTGTARYASMNTHLGIEQSRRDDLESLGFVLMYFLKGSLPWQGLKAGNKKQKYEKISEKKVSTSIEALCRGYPSEFASYFHYCRSLRFDDKPDYAYLKRLFRDLFIREGFQFDYVFDWTILKYQQSQISTPPPRHHGPVVGPSSALPPAITSAERPSGGDEARPSGWSSGIPRRNSGQIFNSGSLAKQKAPVSSDPAISKDVVLSSSSFLRATGSSRRAAVSSSREAAVLGTDSEPSNPQIVEAGSGSNSKIPVSRNSPIVSSEINKLSSPSRATTSVMKNYEANLKGIESLHF
B2: CKB1, regulatory subunit of casein kinase II (CKII) (protein, UniProt P40228 1-287)
chain: MYRDRGTVNSRPEVVDRKRINDALERPSPSTSRQVNGKGKGTVTAATTTANLIGKQQSNNINHRDSRSASLSKNNTVSDDESDTDSEESDVSGSDGEDTSWISWFCNLRGNEFFCEVDDDYIQDDFNLCGLSSLVPYYEYALDLILDVESSQGEMFTEEQNELIESAAEMLYGLIHARYILTSKGLAAMLDKYKNYDFGRCPRVYCCGQPCLPVGQSDLPRSSTVKIYCPKCEDIYYPRSKYQGNIDGAYFGTTFPHLFLMTYGHLKPAKATQNYVQRVFGFKLHKP
B3: SNF4, regulatory subunit of SnRK1 (protein, UniProt Q944A6 1-487)
chain: MFGSTLDSSRGNSAASGQLLTPTRFVWPYGGRRVFLSGSFTRWTEHVPMSPLEGCPTVFQVICNLTPGYHQYKFFVDGEWRHDEHQPFVSGNGGVVNTIFITGPDMVPAGFSPETLGRSNMDVDDVFLRTADPSQEAVPRMSGVDLELSRHRISVLLSTRTAYELLPESGKVIALDVNLPVKQAFHILYEQGIPLAPLWDFGKGQFVGVLGPLDFILILRELGTHGSNLTEEELETHTIAAWKEGKAHISRQYDGSGRPYPRPLVQVGPYDNLKDVALKILQNKVAAVPVIYSSLQDGSYPQLLHLASLSGILKCICRYFRHSSSSLPILQQPICSIPLGTWVPRIGESSSKPLATLRPHASLGSALALLVQAEVSSIPVVDDNDSLIDIYSRSDITALAKDKAYAQIHLDDMTVHQALQLGQDASPPYGIFNGQRCHMCLRSDSLVKVMERLANPGVRRLVIVEAGSKRVEGIISLSDVFQFLLGL
B4: CKA1, catalytic subunit of casein kinase II (CKII) (enzyme, UniProt Q08467 37-409)
chain: PILRSSIVTPTARAVSEVSGCTTIDPDFLVEISDSNQTRAMSKARVYTEVNVIRPKDYWDYESLIVQWGEQDDYEVVRKVGRGKYSEVFEGINVNSKEKCIIKILKPVKKKKIRREIKILQNLCGGPNIVKLLDVVRDQHSKTPSLIFEYVNSTDFKVLYPTLTDYDIRYYIYELLKALDFCHSQGIMHRDVKPHNVMIDHELRKLRLIDWGLAEFYHPGKEYNVRVASRYFKGPELLVDLQDYDYSLDMWSLGCMFAGMIFRKEPFFYGHDNQDQLVKIAKVLGTDELNAYLNKYQLELDPQLEALVGRHSRKPWSKFINADNQHLVSPEAIDFLDKLLRYDHQDRLTAKEAMAHAYFAQVRAAETSRMRSQ
B5: AKIN10, catalytic subunit of SnRK1 (enzyme, UniProt Q38997 1-512)
chain: MDGSGTGSRSGVESILPNYKLGRTLGIGSFGRVKIAEHALTGHKVAIKILNRRKIKNMEMEEKVRREIKILRLFMHPHIIRLYEVIETPTDIYLVMEYVNSGELFDYIVEKGRLQEDEARNFFQQIISGVEYCHRNMVVHRDLKPENLLLDSKCNVKIADFGLSNIMRDGHFLKTSCGSPNYAAPEVISGKLYAGPEVDVWSCGVILYALLCGTLPFDDENIPNLFKKIKGGIYTLPSHLSPGARDLIPRMLVVDPMKRVTIPEIRQHPWFQAHLPRYLAVPPPDTVQQAKKIDEEILQEVINMGFDRNHLIESLRNRTQNDGTVTYYLILDNRFRASSGYLGAEFQETMEGTPRMHPAESVASPVSHRLPGLMEYQGVGLRSQYPVERKWALGLQSRAHPREIMTEVLKALQDLNVCWKKIGHYNMKCRWVPNSSADGMLSNSMHDNNYFGDESSIIENEAAVKSPNVVKFEIQLYKTRDDKYLLDLQRVQGPQFLFLDLCAAFLAQLRVL
B6: AKIN11, catalytic subunit of SnRK1 (enzyme, UniProt P92958 1-512)
chain: MDHSSNRFGNNGVESILPNYKLGKTLGIGSFGKVKIAEHVVTGHKVAIKILNRRKIKNMEMEEKVRREIKILRLFMHPHIIRQYEVIETTSDIYVVMEYVKSGELFDYIVEKGRLQEDEARNFFQQIISGVEYCHRNMVVHRDLKPENLLLDSRCNIKIADFGLSNVMRDGHFLKTSCGSPNYAAPEVISGKLYAGPEVDVWSCGVILYALLCGTLPFDDENIPNLFKKIKGGIYTLPSHLSSEARDLIPRMLIVDPVKRITIPEIRQHRWFQTHLPRYLAVSPPDTVEQAKKINEEIVQEVVNMGFDRNQVLESLRNRTQNDATVTYYLLLDNRFRVPSGYLESEFQETTDSGSNPMRTPEAGASPVGHWIPAHVDHYGLGARSQVPVDRKWALGLQSHAHPREIMNEVLKALQELNVCWKKIGHYNMKCRWVPGLADGQNTMVNNQLHFRDESSIIEDDCAMTSPTVIKFELQLYKAREEKYLLDIQRVNGPQFLFLDLCAAFLTELRVI
B7: CKA2, catalytic subunit of casein kinase II (CKII) (enzyme, UniProt Q08466 32-403)
chain: LIPPLTCVNTGTVESDVTGIRFDRCLDTDSLAKISLSTVMSKARVYTDVNVIRPKDYWDYESLNVQWGEQDDYEVVRKVGRGKYSEVFEGINMNNNEKCIIKILKPVKKKKIRREIKILQNLCGGPNIVKLLDVVRDQHSKTPSLIFEYVNSTDFKVLYPTLTDYDIRYYIYELLKALDFCHSQGIMHRDVKPHNVMIDHELRKLRLIDWGLAEFYHPGKEYNVRVASRYFKGPELLVDLQDYDYSLDMWSLGCMFAGMIFRKEPFFYGHDNQDQLVKIAKVLGTDELNAYLNKYQLELDTQLEALVGRHSRKPWSKFINADNRHLVSPEAIDYLDKLLRYDHQDRLTAKEAMAHPYFAQVRAAESSRMRTQ

Results are given in words; binding and its absence hold for the method and conditions named. Binding seen in cells or lysates may run through a third protein. A yes stands for co-enrichment or nearness to the bait. Other partners may have been found. Tags and fused reporters may be left off the sequences shown.

From article PMC4558565 come the findings set out here.

The target of the assay is T1, GST-tagged bZIP63 (Arabidopsis thaliana). As to the kind of experiment: affinity purification with mass spectrometry; GST-bZIP63 from E. coli lysate held on a GSTrap FF column; total root protein in protein extraction buffer (25 mM TrisCl, 15 mM EGTA, 10 mM MgCl2, 75 mM NaCl, 0.1% Tween20, pH 7.5) loaded; eluted with increasing salt; gel bands at the MW of the in-gel kinase signals cut, trypsin, LC-MS/MS; four independent experiments; only the target purified.
As for “CPK3, calcium dependent protein kinase (from UniProt Q42479 1-529) (enzyme)”, the binding result is given as “binds”.
To B1 belongs “binds”; to B2, “binds”; to B3, “binds”.
The value for B4 was “binds”; that for B5 was “binds”; that for B6 was “binds”.
To B7 belongs “binds”.
